The text below walks through data of publication PMC12691677.

These are yes or no findings as the source states them, for the method shown. Some results given as binding are weak or reduced against the parent protein; the word gives no strength. Sequences can lack the tags named with a protein.

In assay [1] the target is T1, NifH (bacterial two-hybrid fusion) (K. oxytoca) (UniProt P00458).
T1 sequence: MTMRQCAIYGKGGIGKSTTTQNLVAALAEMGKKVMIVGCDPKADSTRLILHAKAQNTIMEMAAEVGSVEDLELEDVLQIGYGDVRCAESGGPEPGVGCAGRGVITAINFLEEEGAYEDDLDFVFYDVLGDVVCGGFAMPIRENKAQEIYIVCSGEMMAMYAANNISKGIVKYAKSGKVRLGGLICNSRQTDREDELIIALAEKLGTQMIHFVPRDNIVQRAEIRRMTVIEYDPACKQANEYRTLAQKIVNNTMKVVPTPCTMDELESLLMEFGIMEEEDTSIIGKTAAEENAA
In words: two-hybrid; bacterial two-hybrid (BTH), fusions to the T18 and T25 fragments of B. pertussis adenylate cyclase (pUT18C, pKT25) in E. coli BTH101; preculture in LB with 200 uM IPTG for 48 h, spotted on LB with X-gal, 30°C, 12 h; blue colour.

For assay [2], the target named is NifM (His-tagged, purified) (K. oxytoca) (UniProt P0A3Z0). In words: SEC; Superdex 200; His-tagged NifM after Ni-NTA (PBS with imidazole), concentrated to 0.5 mL; molecular weight from the elution volume against marker proteins; both purified.

B1: NifM (bacterial two-hybrid fusion) (protein, UniProt P0A3Z0 1-266)
chain: MNPWQRFARQRLARSRWNRDPAALDPADTPAFEQAWQRQCHMEQTIVARVPEGDIPAALLENIAASLAIWLDEGDFAPPERAAIVRHHARLELAFADIARQAPQPDLSTVQAWYLRHQTQFMRPEQRLTRHLLLTVDNDREAVHQRILGLYRQINASRDAFAPLAQRHSHCPSALEEGRLGWISRGLLYPQLETALFSLAENALSLPIASELGWHLLWCEAIRPAAPMEPQQALESARDYLWQQSQQRHQRQWLEQMISRQPGLCG
With B1, the binding result in assay [1] was “binds”.

B2: NifM (His-tagged, purified) (protein, UniProt P0A3Z0 1-266)
chain: MNPWQRFARQRLARSRWNRDPAALDPADTPAFEQAWQRQCHMEQTIVARVPEGDIPAALLENIAASLAIWLDEGDFAPPERAAIVRHHARLELAFADIARQAPQPDLSTVQAWYLRHQTQFMRPEQRLTRHLLLTVDNDREAVHQRILGLYRQINASRDAFAPLAQRHSHCPSALEEGRLGWISRGLLYPQLETALFSLAENALSLPIASELGWHLLWCEAIRPAAPMEPQQALESARDYLWQQSQQRHQRQWLEQMISRQPGLCG
With B2, the binding entry in assay [2] is “no binding”.
